Reference: US20070185099A1, “Triazolopyrimidine compounds and their use for controlling pathogenic fungi” (priority 2004, published 2007)
Some results were stated once for a whole list of compounds, not compound by compound.

Experiments:
Botrytis cinerea = test: Activity against gray mold on bell pepper leaves caused by Botrytis cinerea, protective application; type: in vivo; conditions: 250 ppm active compound, bell pepper cultivar Neusiedler Ideal Elite, visual rating after 5 days; untreated plants at least 80% infected
Alternaria solani = test: Activity against early blight caused by Alternaria solani on tomato plants, protective spray; type: in vivo; conditions: 250 ppm active compound, tomato cultivar golden princess, visual rating after 5 days; untreated plants 90% affected

SMILES	infection of treated plants (infected leaf area) (Botrytis cinerea)	infection of treated plants (Alternaria solani)
COC(=O)C(CCSC)Nc1c(-c2c(F)cc(F)cc2F)c(Cl)nc2ncnn12 (racemic) [Example 11]	less than 10%	–
CCC(Nc1c(-c2c(F)cc(F)cc2F)c(Cl)nc2ncnn12)C(=O)OC (racemic) [Example 41]	less than 10%	–
CNC(=O)C(Nc1c(-c2c(F)cc(F)cc2F)c(Cl)nc2ncnn12)C(C)(C)C (racemic) [Example 54]	less than 10%	–
COC(=O)C(Nc1c(-c2c(F)cc(F)cc2F)c(Cl)nc2ncnn12)C(C)(C)C (racemic) [Example 61]	less than 10%	–
CC[C@H](C)[C@H](Nc1c(-c2c(F)cc(F)cc2F)c(Cl)nc2ncnn12)C(=O)OC [Example 3]	less than 10%	at most 15%
COC(=O)[C@H](CC(C)C)Nc1c(-c2c(F)cc(F)cc2F)c(Cl)nc2ncnn12 [Example 6]	less than 10%	–
CCOC(=O)CN(C)c1c(-c2c(F)cc(F)cc2F)c(Cl)nc2ncnn12 [Example 13]	–	at most 15%
C=CCOC(=O)[C@@H](Nc1c(-c2c(F)cc(F)cc2F)c(Cl)nc2ncnn12)[C@@H](C)CC [Example 15]	less than 10%	–
C=CCOC(=O)[C@H](CCSC)Nc1c(-c2c(F)cc(F)cc2F)c(Cl)nc2ncnn12 [Example 26]	less than 10%	–
O=C(O)CNc1c(-c2c(F)cc(F)cc2F)c(Cl)nc2ncnn12 [Example 33]	less than 10%	–
CCOC(=O)CN(Cc1ccccc1)c1c(-c2c(F)cc(F)cc2F)c(Cl)nc2ncnn12 [Example 35]	less than 10%	–
CCOC(=O)[C@@H](Nc1c(-c2c(F)cc(F)cc2F)c(Cl)nc2ncnn12)C(C)C [Example 37]	less than 10%	at most 15%
CCCOC(=O)[C@@H](Nc1c(-c2c(F)cc(F)cc2F)c(Cl)nc2ncnn12)[C@@H](C)CC [Example 39]	less than 10%	–
CCCOC(=O)[C@H](Nc1c(-c2c(F)cc(F)cc2F)c(Cl)nc2ncnn12)C(C)C [Example 40]	less than 10%	–
COC(=O)[C@H](CC(C)C)Nc1c(-c2c(F)cccc2Cl)c(Cl)nc2ncnn12 [Example 43]	less than 10%	at most 15%
CC[C@H](C)[C@H](Nc1c(-c2c(F)cccc2Cl)c(Cl)nc2ncnn12)C(=O)OC [Example 44]	less than 10%	–
CCCOC(=O)[C@@H](Nc1c(-c2c(F)cc(F)cc2F)c(Cl)nc2ncnn12)C(C)C [Example 51]	less than 10%	–
COC(=O)[C@H](Nc1c(-c2c(F)cc(F)cc2F)c(Cl)nc2ncnn12)C(C)C [Example 52]	less than 10%	at most 15%
CCOC(=O)[C@@H](Nc1c(-c2c(F)cc(F)cc2F)c(Cl)nc2ncnn12)[C@@H](C)CC [Example 55]	less than 10%	–
COC(=O)C(C(C)C)N(C)c1c(-c2c(F)cc(F)cc2F)c(Cl)nc2ncnn12 (stereo not drawn) [Example 60]	less than 10%	–
